Consider three substances from PMC12373999.

Amino acid sequences for entries named in this document (tags omitted).
UniProt Q5AL16: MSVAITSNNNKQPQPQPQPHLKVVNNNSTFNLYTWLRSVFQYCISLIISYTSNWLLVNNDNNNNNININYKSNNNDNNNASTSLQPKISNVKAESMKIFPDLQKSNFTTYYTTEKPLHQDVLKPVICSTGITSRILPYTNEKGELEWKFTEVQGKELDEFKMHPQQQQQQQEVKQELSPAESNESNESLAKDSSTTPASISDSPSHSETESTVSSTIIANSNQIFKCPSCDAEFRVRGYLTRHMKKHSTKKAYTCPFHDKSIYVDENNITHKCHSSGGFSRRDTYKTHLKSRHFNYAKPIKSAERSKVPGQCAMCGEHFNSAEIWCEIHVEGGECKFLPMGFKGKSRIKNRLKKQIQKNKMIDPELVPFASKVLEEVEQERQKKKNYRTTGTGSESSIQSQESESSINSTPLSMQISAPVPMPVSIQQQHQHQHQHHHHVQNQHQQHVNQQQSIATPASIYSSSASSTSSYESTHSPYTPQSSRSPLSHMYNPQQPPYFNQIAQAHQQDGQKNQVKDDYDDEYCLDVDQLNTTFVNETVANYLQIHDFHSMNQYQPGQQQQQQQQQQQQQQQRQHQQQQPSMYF
UniProt Q5A876: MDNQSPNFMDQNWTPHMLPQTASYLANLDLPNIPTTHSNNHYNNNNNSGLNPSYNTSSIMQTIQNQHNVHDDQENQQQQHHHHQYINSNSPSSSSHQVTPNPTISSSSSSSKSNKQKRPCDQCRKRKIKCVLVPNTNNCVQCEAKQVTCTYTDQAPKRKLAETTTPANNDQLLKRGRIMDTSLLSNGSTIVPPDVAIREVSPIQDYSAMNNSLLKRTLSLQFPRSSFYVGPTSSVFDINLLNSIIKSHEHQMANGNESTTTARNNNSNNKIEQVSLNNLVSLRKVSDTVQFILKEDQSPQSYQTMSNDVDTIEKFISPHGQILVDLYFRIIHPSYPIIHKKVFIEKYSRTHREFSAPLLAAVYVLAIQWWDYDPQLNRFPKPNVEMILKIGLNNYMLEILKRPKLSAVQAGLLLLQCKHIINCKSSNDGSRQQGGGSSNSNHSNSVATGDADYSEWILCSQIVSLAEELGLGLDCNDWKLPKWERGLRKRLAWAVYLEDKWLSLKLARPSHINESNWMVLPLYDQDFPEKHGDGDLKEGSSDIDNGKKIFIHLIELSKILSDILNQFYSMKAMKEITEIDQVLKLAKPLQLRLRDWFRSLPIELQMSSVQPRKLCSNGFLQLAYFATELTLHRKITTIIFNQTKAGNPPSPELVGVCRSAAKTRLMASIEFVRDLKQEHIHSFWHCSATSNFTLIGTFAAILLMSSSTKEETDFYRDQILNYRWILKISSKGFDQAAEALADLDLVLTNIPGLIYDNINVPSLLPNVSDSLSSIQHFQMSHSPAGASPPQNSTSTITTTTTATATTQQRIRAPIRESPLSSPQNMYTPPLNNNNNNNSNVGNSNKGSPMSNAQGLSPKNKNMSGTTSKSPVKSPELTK

In test [1] the target is Stp2 fused to the Gal4 DNA binding domain (BD-Stp2) (C. albicans) (UniProt Q5AL16). Nature of the test: two-hybrid; Stp2 on the Gal4 DNA-binding domain (bait, pGBKT7, Y2HGold), Dal81 on the Gal4 activation domain (prey, pGADT7, Y187); mated diploids on SD/-Leu/-Trp/-His/-Ade with X-α-Gal; blue colonies mean interaction.
In test [2] the target is Stp2-3xHA (C. albicans (strains derived from SC5314)) (UniProt Q5AL16). Briefly: co-IP; C. albicans grown in YNB + 1% CAA (initial pH 4.5) to log phase; whole cell extracts under nondenaturing conditions (50 mM Tris-HCl pH 7.5, 50 mM NaCl, 1 mM EDTA, 0.5% NP40, 5 mM MgCl2, 10% glycerol); 5 mg protein with anti-c-Myc or anti-HA affinity gel overnight at 4 °C; washes with 150 mM NaCl; western blot. (In general: In western blotting, separated proteins are transferred to a membrane and probed.)

Test [3] has as its target Dal81-13xMyc (C. albicans (strains derived from SC5314)) (UniProt Q5A876). The description is as above.

These are yes or no findings as the source states them, for the method shown. For part of these data: In cells and extracts the contact can be indirect. Some binding calls cover weakened binding; strength is not graded here.

“Dal81 fused to the Gal4 activation domain (AD-Dal81) (from UniProt Q5A876 1-878)”: the binding result in test [1] is recorded as “binds”.

For “Dal81-13xMyc (from UniProt Q5A876 1-878)”, the binding entry in test [2] is on record as “binds”.

As for Stp2-3xHA (from UniProt Q5AL16 1-584), the binding result in test [3] is given as “binds”.
